For part of these data: Not every detail of the peptide structures is certain; ends, links or a residue may be inferred. At least one compound was matched to its structure with a doubt left. Where a SMILES comes first, the peptide text is derived from it. Bridges are numbered along the chain shown (N, C = ends). Roman numbers before positions name the chains, in order. Side-chain parts run from the residue outwards. [ ]: non-standard residue; d: D form. Ahx = NCCCCCC(=O)O
Experiments:
CD40-CD40L interaction = target: T1, CD40-CD40L interaction (Homo sapiens, UniProt P25942); experiment: Expression of CD95 induced by CD40L on BL41 cells cultured with 3T6-CD40L fibroblasts (flow cytometry); assay type: cell-based
T1 construct: they receive a signal via the CD40 molecule, which they express in a constitutive manner; endogenous in cells; host or cells: BL41 Burkitt's lymphoma cells (endogenous CD40), co-cultured with 3T6 fibroblasts transfected with CD40L
Method: Then, the affinity of these ligands for the CD40 molecule is evaluated using a biosensor (BIAcore™). The agonist or antagonist effect of the ligands was tested using two simple biological tests. In the first, the expression of the membranous molecule CD95 by transformed B cells (Burkitt's lymphoma) is studied after activation by the CD40-CD40L interaction (Schattner et al., 1996). In such a model, the CD40L partner is expressed on transfected fibroblasts (3T6-CD40L) (Buelens et al., 1997). The BL41 Burkitt's lymphoma cells are incubated with non-transfected 3T6 fibroblasts (FIGS. 3A and 3C) or with 3T6 fibroblasts transfected by CD40L (FIGS. 3B and 3D). After 48 hours, the expression of CD95 is evaluated by flow cytometry. The expression of CD95 is induced in the presence of CD40L (FIG. 3B). A commercial anti-CD40L antibody inhibits the consequences of the CD40-CD40L interaction (FIG. 3D).
The antagonist effect is evaluated by measurement of the decrease in the expression of CD95 induced by the CD40L in the presence of the different chemical ligands (see Table I). […]
The BL41 Burkitt's lymphoma cells (5.10^5/ml) are cultured in the presence of 3T6 fibroblasts (10^5/ml) transfected (3T6-CD40L) or not transfected with CD40L (3T6), and treated with mitomycin to stop their proliferation. […] After culture for 48 hours, expression of the CD95 molecule is measured by flow cytometry. […]

Protein sequences, listed by entry. Tags and fused reporters are not part of them. Lines headed by an entry give the natural chain unless they say otherwise; changes in a name come on top. Residues count along the entry.
UniProt P25942, 21-277: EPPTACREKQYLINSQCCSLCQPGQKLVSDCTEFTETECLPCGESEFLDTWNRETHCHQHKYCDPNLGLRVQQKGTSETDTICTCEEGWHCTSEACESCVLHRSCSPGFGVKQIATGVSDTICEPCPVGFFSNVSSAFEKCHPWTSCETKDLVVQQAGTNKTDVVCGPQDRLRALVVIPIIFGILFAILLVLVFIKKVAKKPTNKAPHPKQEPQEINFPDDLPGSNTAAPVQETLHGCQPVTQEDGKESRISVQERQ
UniProt P01863: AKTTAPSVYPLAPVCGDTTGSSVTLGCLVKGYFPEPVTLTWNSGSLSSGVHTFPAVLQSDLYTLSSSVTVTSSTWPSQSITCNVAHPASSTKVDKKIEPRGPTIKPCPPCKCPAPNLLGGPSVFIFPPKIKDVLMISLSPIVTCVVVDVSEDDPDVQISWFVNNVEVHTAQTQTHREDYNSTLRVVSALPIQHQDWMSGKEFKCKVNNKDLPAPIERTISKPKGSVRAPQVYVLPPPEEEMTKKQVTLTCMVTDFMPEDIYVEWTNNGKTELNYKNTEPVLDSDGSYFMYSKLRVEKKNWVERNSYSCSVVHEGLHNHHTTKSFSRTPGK

[1] = test system: BL41 Burkitt's lymphoma cells; experiment: Inhibition of proliferation of BL41 cells (incorporation of tritiated thymidine); assay type: cell-based; details: 24 hours culture, FIG. 4A, 50 μM to 50 nM
Method: Tritiated thymidine was added at a concentration of 1 μci/well (0.8.10^5 cells/well) for the last 8 hours of culture and the incorporation of tritiated thymidine measured using a gaseous scintillation β counter.
(§1) The second test is based on the property of certain B lymphomas to cease proliferation and enter apoptosis during the bridging of their membranous CD40 molecule (Tong et al., 1999). In this test, the BL41 cells are incubated with ligands CD40 and after 24 hours either the inhibition of proliferation of these cells is measured, by studying the incorporation of tritiated thymidine, or the percentage of apoptotic cells is measured with a flow cytometry study (FIGS. 4A and 4B).
(§2) Certain B lymphomas enter apoptosis when their CD40 molecule is bridged by an anti-CD40 antibody or by CD40L which is soluble independently from the CD95 molecule. This induction of apoptosis is expressed as a decrease in proliferation measured by the incorporation of tritiated thymidine. The agonist ligands of CD40 will induce an increase in apoptosis and as a result a decrease in the incorporation of tritiated thymidine.
The BL41 Burkitt's lymphoma cells (4.10^5/mL) are cultured in the presence of the different ligands at the chosen concentration. […]

[2] = target: T2, human CD40 muIg fusion protein (UniProt P01863+P25942); experiment: Biacore3000 surface plasmon resonance study of the CD40/CD40L interaction and the ligands; assay type: binding; details: in the presence of 100 nM of CD40L
T2 construct: purchased ANCELL Corporation, Bayport, Minn
From the text: The Biacore3000 is a device which allows the interactions between two molecules to be studied, based on the surface plasmon resonance. It allows measurement in real time, and therefore allows the kinetics of interaction (association and disassociation) of an analyte (which is in an injected solution) and of a ligand (immobilised on a microchip supporting the measurement) to be monitored. The kinetic measurements at different concentrations of analyte allow calculation of the affinity constants of the interaction between the ligand and the analytes. The microchip contains four cells for different measurements, which allows direct comparison of a reference cell on which a protein which is not pertinent (protein which has no affinity with the ligand studied), but close to the ligand is immobilised with the cell on which the ligand is immobilised.
Rabbit antibodies directed against the constant region of mouse immunoglobulins were immobilized on a microchip. […]
In order to regenerate the cells (i.e. remove all the proteins adsorbed in a non-covalent manner), a solution of 10 mM of HCl is injected at 5 μL/min for 1 minute. The cells are then ready for another analysis.

[3] = test system: BL41 Burkitt's lymphoma cells; experiment: Apoptosis of BL41 cells (Annexin V-FITC / propidium iodide flow cytometry); assay type: cell-based; details: for apoptosis of BL41 cells (in words): 24 hours culture, FIG. 4B, 50 to 6 μM; for agonist activity, mimic CD40L (conclusion): BL41 proliferation/apoptosis tests
Method: Apoptosis is measured by flow cytometry after labelling with annexin V FITC and propidium iodide. Cells labelled with annexin V alone or with annexin V and propidium iodide are considered apoptotic. The percentage of specific apoptosis is calculated by the following formula: [(% apoptosis with ligand−% apoptosis without ligand)/(100−% apoptosis without ligand)]×100
as §1, §2
The BL41 Burkitt's lymphoma cells (4.10^5/mL) are cultured in the presence of the different ligands at the chosen concentration. After 24 hours, the cells are either incubated for 8 hours with tritiated thymidine (1 μci/well) to measure the proliferation or are labelled with Annexin V-FITC and propidium iodide to evaluate the percentage of apoptotic cells with flow cytometry.

MRL-lpr mice = experiment: Development of lupus disease in MRL-lpr mice after intravenous injection; assay type: in vivo

Row | SMILES | effect on the expression of CD95 induced by CD40L (in words) (CD40-CD40L interaction; from 100 to 25 μM) | inhibition of the proliferation of BL41 cells (in words) [1] | effect on the expression of CD95 induced by CD40L (in words) (CD40-CD40L interaction; range of concentrations from 50 to 0.5 μM) | binding to CD40 and displacement of CD40L (in words) [2] | apoptosis of BL41 cells (in words) [3] | agonist activity, mimic CD40L (conclusion) [3] | appearance of anti-DNA antibodies in the serum (MRL-lpr mice; 100 μg ligand i.v., 3 injections, versus PBS, ELISA, FIG. 5B) | appearance of proteinuria in the urine (MRL-lpr mice; 100 μg ligand i.v., 3 injections, versus PBS, FIG. 5C) | agonist effect in vivo (conclusion) (MRL-lpr mice; MRL-lpr mice, acceleration of the lupus disease)
1 | C[C@H](NC(=O)[C@H](CCCCNC(=O)[C@H](CCCCNC(=O)[C@H](CCCCNC(=O)[C@H](CCCCNC(=O)[C@H](Cc1ccc(O)cc1)NC(=O)[C@H](Cc1ccc(O)cc1)NC(=O)CNC(=O)[C@@H](N)CCCCN)NC(=O)[C@H](Cc1ccc(O)cc1)NC(=O)[C@H](Cc1ccc(O)cc1)NC(=O)CNC(=O)[C@@H](N)CCCCN)NC(=O)[C@H](Cc1ccc(O)cc1)NC(=O)[C@H](Cc1ccc(O)cc1)NC(=O)CNC(=O)[C@@H](N)CCCCN)NC(=O)[C@H](Cc1ccc(O)cc1)NC(=O)[C@H](Cc1ccc(O)cc1)NC(=O)CNC(=O)[C@@H](N)CCCCN)NC(=O)[C@H](Cc1ccc(O)cc1)NC(=O)[C@H](Cc1ccc(O)cc1)NC(=O)CNC(=O)[C@@H](N)CCCCN)C(=O)O [L3] (I: H-KGYYKA-OH / II: H-KGYYK([Tyr-Tyr-Gly-Lys]) / III: H-KGYYK / IV: H-KGYYK; amide I:5-IV:C, II:C-III:5, III:C-IV:5) | greatly inhibits | – | – | – | – | – | – | – | –
2 | C[C@H]1NC(=O)[C@H](CCCCNC(=O)CCCCCNC(=O)[C@H](Cc2ccc(O)cc2)NC(=O)[C@H](Cc2ccc(O)cc2)NC(=O)CNC(=O)[C@@H](N)CCCCN)NC(=O)[C@@H](C)NC(=O)[C@H](CCCCNC(=O)CCCCCNC(=O)[C@H](Cc2ccc(O)cc2)NC(=O)[C@H](Cc2ccc(O)cc2)NC(=O)CNC(=O)[C@@H](N)CCCCN)NC(=O)[C@@H](C)NC(=O)[C@H](CCCCNC(=O)CCCCCNC(=O)[C@H](Cc2ccc(O)cc2)NC(=O)[C@H](Cc2ccc(O)cc2)NC(=O)CNC(=O)[C@@H](N)CCCCN)NC1=O [L4] (cyclo(K([Ahx-Tyr-Tyr-Gly-Lys])[dA]K([Ahx-Tyr-Tyr-Gly-Lys])[dA]K([Ahx-Tyr-Tyr-Gly-Lys])[dA])) | – | greatly inhibits | inhibits | bind to CD40 and displace CD40L | strong increase in apoptosis | agonist activity | earlier appearance | earlier appearance | agonist effect in vivo
3 | NCCCC[C@H](N)C(=O)NCC(=O)N[C@@H](Cc1ccc(O)cc1)C(=O)N[C@@H](Cc1ccc(O)cc1)C(=O)NCCCCCC(=O)NCCCC[C@H]1CC(=O)N[C@@H](CCCCNC(=O)CCCCCNC(=O)[C@H](Cc2ccc(O)cc2)NC(=O)[C@H](Cc2ccc(O)cc2)NC(=O)CNC(=O)[C@@H](N)CCCCN)CC(=O)N[C@@H](CCCCNC(=O)CCCCCNC(=O)[C@H](Cc2ccc(O)cc2)NC(=O)[C@H](Cc2ccc(O)cc2)NC(=O)CNC(=O)[C@@H](N)CCCCN)CC(=O)N1 [L9] | – | – | – | bind to CD40 and displace CD40L | just as strongly | agonist activity | – | – | –

Source: patent publication US7741280B2, “Multimeric molecules, the preparation method thereof and use of same for the preparation of medicaments” (Centre National de la Recherche Scientifique, priority 2002, dated 2010)
